Assay results reported in PMC11833080.
Results are given in words; binding and its absence hold for the method and conditions named. Binding seen in cells or lysates may run through a third protein. Some entries that bind do so weakly or less than the wild type.

By UniProt entry, the sequences of proteins in these tests, tags left out.
UniProt O76083: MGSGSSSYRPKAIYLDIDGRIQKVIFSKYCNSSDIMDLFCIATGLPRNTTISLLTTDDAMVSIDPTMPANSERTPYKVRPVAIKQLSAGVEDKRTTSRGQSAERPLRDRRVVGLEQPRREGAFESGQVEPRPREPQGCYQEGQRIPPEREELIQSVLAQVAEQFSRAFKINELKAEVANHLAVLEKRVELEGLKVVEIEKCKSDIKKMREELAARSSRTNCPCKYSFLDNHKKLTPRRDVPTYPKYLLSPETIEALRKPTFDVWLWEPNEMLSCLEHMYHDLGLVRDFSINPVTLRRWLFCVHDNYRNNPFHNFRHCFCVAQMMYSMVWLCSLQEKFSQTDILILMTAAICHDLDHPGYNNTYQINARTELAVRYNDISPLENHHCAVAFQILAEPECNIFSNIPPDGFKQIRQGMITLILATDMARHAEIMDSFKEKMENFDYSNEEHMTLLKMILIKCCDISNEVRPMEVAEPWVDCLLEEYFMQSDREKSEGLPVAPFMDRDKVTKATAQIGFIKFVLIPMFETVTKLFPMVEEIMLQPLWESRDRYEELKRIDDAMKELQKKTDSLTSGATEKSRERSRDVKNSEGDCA
UniProt Q9UNE7: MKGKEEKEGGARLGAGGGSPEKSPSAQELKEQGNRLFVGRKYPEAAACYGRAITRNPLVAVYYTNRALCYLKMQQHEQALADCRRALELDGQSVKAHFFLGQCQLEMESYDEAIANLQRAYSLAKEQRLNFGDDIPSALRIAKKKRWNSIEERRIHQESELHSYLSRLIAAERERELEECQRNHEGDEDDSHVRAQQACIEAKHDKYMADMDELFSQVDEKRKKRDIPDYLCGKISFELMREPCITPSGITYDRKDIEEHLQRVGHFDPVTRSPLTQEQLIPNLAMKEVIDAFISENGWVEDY

Target: V5-His-PDE9A (phosphodiesterase 9A) (human) (UniProt O76083)
Experiment: co-IP; HEK293T cells transfected with plasmids; NP-40 lysis buffer; lysate precleared with Protein A+G magnetic beads; immunoprecipitation with V5-rabbit antibody (10 µg), 4 °C; western blot with Flag-mouse antibody

binding: binds
Substance: Flag-CHIP (carboxyl terminus of Hsc70-interacting protein, STUB1), wild type (from UniProt Q9UNE7 1-303) (enzyme)
